According to PubChem BioAssay AID662 (National Center for Advancing Translational Sciences (NCATS), 2007):
The other results are listed elsewhere or left out. The main result of the screen is listed elsewhere. These columns were measured beside it and carry no call. The list favours compounds with an active or inconclusive main result. Words in brackets tell the shape of the fitted curve; partial curves, single points and poor fits give uncertain potencies.

Assay: Cell signaling CRE-BLA (Fsk stim)
Settings: CHO CRE-bla reporter (cAMP response element driving beta-lactamase), forskolin EC10, beta-lactamase ratio; measured here: 460 nm blue channel
How it was run: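 qHTS titration format; CRE-bla CHO reporter; stimulus EC10 NKH 477, a water-soluble forskolin. Read: CCF4 460/530 nm ratio. Potency expressed as AC50 for activators or inhibitors.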

| Structure (SMILES) | AC50 |
| --- | --- |
| CN(C)c1nc2n(c(=O)n1)CCO2 | 5.01 µM [falling, single point] |
| Cc1n[nH]c(C)c1N1C(=O)c2cccc3c(N4CCCCCC4)ccc(c23)C1=O | 3.98 µM [rising, partial curve] |
| CC(C)OC(=O)CC(=O)CSc1nc2c(cc1C#N)CCCC2 | 12.6 µM [rising, partial curve] |
| COc1cc(NC2c3ncccc3C(=O)N2Cc2ccco2)cc(OC)c1 (centres undefined) | 0.0501 µM [rising, partial curve, poor fit] |
| COc1ccccc1-c1nc(NC(C)=O)n[nH]1 | 31.6 µM [falling, partial curve] |
| CC(C)n1c(SCc2ccc(Cl)cc2)nc2c1c(=O)[nH]c(=O)n2C | 12.6 µM [rising, partial curve] |
| CNc1nnc(-c2cccc(N(C)C)c2)s1 | 15.8 µM [rising, single point] |
| CCc1nc(SCC(=O)Nc2cc(C)on2)c2c(C)c(C)sc2n1 | 2.51 µM [rising, full curve] |
| CCN(CC)CCNC(=O)C1CCC(=O)N1CCc1ccccc1 (centres undefined) | 31.6 µM [falling, partial curve] |
| Nc1c(-c2ccc(Cl)cc2)nnn1-c1ccccc1 | 15.8 µM [rising, partial curve, poor fit] |
| Cc1cc(C)n(-c2nc(SCC(=O)N3CCCC3)c3c4c(sc3n2)CCCC4)n1 | 5.01 µM [falling, single point] |
| COc1ccccc1CNc1ncnc2ccc(-c3ccc(N(C)C)cc3)cc12 | 5.01 µM [rising, full curve] |
| CCOC(=O)Cc1[nH]nc2c1C(C1C=CCCC1)C(C#N)=C(N)O2 (centres undefined) | 5.01 µM [falling, partial curve] |
| CCCCn1c(SCc2cccnc2)nc2c1c(=O)n(C)c(=O)n2C | 12.6 µM [rising, partial curve] |
| N#Cc1cccc(NC(=O)NCCc2c[nH]c3ccccc23)c1 | 10 µM [falling, partial curve] |
| COc1ccc(-c2nnc(SC(=O)N3c4ccccc4Sc4ccccc43)o2)cc1 | 0.631 µM [falling, full curve, poor fit] |
| CC1S/C(=C(\C#N)C(=O)NCc2ccco2)N(c2ccc(F)cc2)C1=O (centres undefined) | 1.58 µM [rising, single point] |
| Cc1cc(NC(c2cccnc2)c2ccc3cccnc3c2O)no1 (centres undefined) | 3.16 µM [falling, partial curve] |
| CN1CCc2c(sc3c2C(=O)NC(c2cccc(OC(=O)c4cccs4)c2)N3)C1 (centres undefined) | 10 µM [rising, partial curve] |
| CCOC(=O)c1c(NC(=O)c2ccco2)sc(C(=O)N2CCCC2)c1C | 10 µM [rising, partial curve] |
| CCc1nc(N2CCOCC2)c(C#N)c2c1COC(C)(C)C2 | 12.6 µM [rising, partial curve] |
| CCOC(=O)c1sc2nc(SCC#N)n(CCCN3CCCC3=O)c(=O)c2c1C | 10 µM [rising, single point] |
| O=C(CCSc1ccccc1)Nc1ccc(S(=O)(=O)N2CCOCC2)cc1 | 12.6 µM [falling, single point] |

| Structure (SMILES) | AC50 |
| --- | --- |
| CCN(CC)CCn1cnc2c([nH]c3cccc(OC)c32)c1=O | 3.16 µM [falling, full curve] |
| COc1ccc(-c2nc3cnc(Oc4cccc(Cl)c4)nc3n(C3CC3)c2=O)cc1 | 2.51 µM [rising, full curve] |
| CCc1nc(C)cn1S(=O)(=O)c1cc(Br)ccc1OC | 25.1 µM [rising, single point] |
| Cc1cc(-n2c(=O)c(C#N)cc3c(=O)n4cccc(C)c4nc32)no1 | 3.98 µM [rising, full curve] |
| CC1CCN(S(=O)(=O)c2ccc3c(c2)c(=O)c(C(=O)NC2CCCC2)cn3C)CC1 | 5.01 µM [falling, partial curve, poor fit] |
| CC(C)C(NS(=O)(=O)c1cccs1)C(=O)N1CCc2ccccc2C1 (centres undefined) | 10 µM [rising, single point] |
| CCCCn1cnc2c1c(=O)n(C)c(=O)n2C | 12.6 µM [rising, partial curve] |
| O=C(CN1CCSCC1)N1CCc2[nH]c3ccc(Br)cc3c2C1 | 25.1 µM [rising, single point] |
| N#CC1=C(N)C(C#N)(C#N)[C@H](c2ccoc2)[C@H]2CN(Cc3ccccc3)CC=C12 | 10 µM [rising, partial curve] |
| CCNc1ncc2nc(-c3cccs3)c(=O)n(Cc3cccs3)c2n1 | 0.794 µM [rising, full curve] |
| COCCNC(=O)c1cn(C)c(=O)c2cc(OC)c(OC)cc12 | 12.6 µM [rising, partial curve] |
| O=c1oc2ccc(Br)cc2cc1-c1nc2ccccc2o1 | 3.98 µM [rising, partial curve] |
| CC1Cc2ccccc2N1C(=O)CSCC(=O)O (centres undefined) | 20 µM [rising, single point] |
| CC1CCN(CCCNC(=O)c2ccc(CS(=O)(=O)Cc3ccccc3F)o2)CC1 | 25.1 µM [rising, single point] |
| Cc1ccc(-c2nnc(SCC(=O)N3CCCC3)o2)cc1C | 0.00631 µM [falling, full curve, poor fit] |
| CCOC(=O)c1c(C)c(C(=O)NCc2cccs2)c(C)n1CC | 7.94 µM [rising, partial curve] |
| CCOC(=O)c1c(N)nn(C(=O)C(C)(C)C)c1-c1ccccc1 | 12.6 µM [rising, single point] |
| CCCn1nc(C(=O)NCc2ccccn2)c2ccccc2c1=O | 25.1 µM [rising, single point] |
| CN(CC(=O)NCCN1CCN(Cc2ccccc2)CC1)S(=O)(=O)c1cccc2nsnc12 | 3.98 µM [rising, single point] |
| Cc1ccc2[nH]c(-c3ccccc3)c(CN3CCN(C)CC3)c(=O)c2c1 | 0.398 µM [rising, full curve] |
| NS(=O)(=O)c1ccc(Nc2nc(-c3ccc(O)cc3)cs2)cc1 | 0.00316 µM [falling, full curve, poor fit] |
| COC(=O)[C@@H](NC(=O)NCc1ccccc1Cl)C(C)C | 6.31 µM [falling, partial curve] |
| COc1c(C)cccc1C(=O)Nc1cc(-c2nn3c(C)nnc3s2)ccc1C | 2.51 µM [rising, full curve] |

| Structure (SMILES) | AC50 |
| --- | --- |
| N#CCCn1c(SCC(=O)c2c[nH]c3ccccc23)nc2ccccc21 | 3.16 µM [rising, single point] |
| Cc1ccc(-c2cc(C(F)F)nc(NCC3CCCO3)n2)cc1 (centres undefined) | 10 µM [rising, partial curve] |
| CCCCNc1nc2ccccc2n1CC(=O)N1CCc2ccccc2C1 | 0.1 µM [falling, partial curve] |
| CCCCn1c(SCC(=O)Nc2nnc(C)s2)nnc1-c1ccoc1C | 12.6 µM [rising, single point] |
| COc1cc(-c2nnc(COc3ccc4ccccc4c3)o2)cc(OC)c1OC | 0.316 µM [rising, partial curve] |
| COCCn1c(=O)c(-c2ccc(OC)cc2)nc2cnc(OCc3ccccc3)nc21 | 12.6 µM [rising, partial curve] |
| O=C1c2cccc(O)c2C(=O)c2c(O)cccc21 | 10 µM [rising, full curve, poor fit] |
| CC1CCN(c2nc3ccccc3nc2C(C#N)C(=O)NC2CCCCC2)CC1 (centres undefined) | 10 µM [rising, partial curve] |
| COc1ccc(OC)c(NC(=O)Cc2coc3ccc(C)cc23)c1 | 0.00316 µM [falling, full curve, poor fit] |
| O=C(Cc1ccc(Cl)cc1)Nc1ccc(-c2nnc(-c3ccco3)o2)cc1 | 6.31 µM [falling, partial curve] |
| CC1Cc2cc(C3(O)C(=O)c4ccccc4C3=O)ccc2N1 (centres undefined) | 20 µM [falling, single point] |
| CCc1nc2c(cnn2-c2ccc(Cl)cc2)c(=O)n1-c1ccc(OC)cc1 | 0.631 µM [rising, full curve] |
| Cc1cccc(-c2c3c(=O)n(C)c(=O)n(C)c3c3cccnn23)c1 | 3.16 µM [rising, full curve] |
| COc1ccc(C(=O)Nc2ccc(-c3cn4ccsc4n3)cc2)cc1S(=O)(=O)N1CCOCC1 | 2 µM [rising, full curve] |
| CCOC(=O)CSc1nnc(CNC(=O)c2ccco2)n1C | 25.1 µM [falling, single point] |
| CCN(CC)C(=O)CN(C)S(=O)(=O)c1cccc2nsnc12 | 0.126 µM [falling, full curve] |
| CCn1c(SCC(=O)Nc2nc(-c3ccc(C)cc3)cs2)nnc1-c1ccccc1O | 25.1 µM [falling, single point] |
| CCCN(CCC)c1ncnc2c1cnn2-c1ccc(OC)cc1 | 10 µM [rising, partial curve] |
| CCC(C)NC(=O)C1CCC(=O)N1Cc1ccc(C)cc1 (centres undefined) | 25.1 µM [rising, single point] |
| CCCN1Cc2cccc(C(=O)Nc3ccc4c(c3)OCCO4)c2C1=O | 12.6 µM [rising, partial curve] |
| O=c1cc(N2CCOCC2)oc2c(-c3ccccc3)cccc12 | 2.51 µM [rising, partial curve] |
| CC(C)OCCCNC(=O)c1c(N)n(/N=C/c2ccccn2)c2nc3ccccc3nc12 | 3.98 µM [rising, partial curve] |
| CCOC(=O)c1cnc(SCC(=O)c2ccccc2)nc1N | 12.6 µM [rising, single point] |

Among those listed so far, these have bromine:

| Structure (SMILES) | AC50 |
| --- | --- |
| CCc1nc(C)cn1S(=O)(=O)c1cc(Br)ccc1OC | 25.1 µM [rising, single point] |
| O=C(CN1CCSCC1)N1CCc2[nH]c3ccc(Br)cc3c2C1 | 25.1 µM [rising, single point] |
| O=c1oc2ccc(Br)cc2cc1-c1nc2ccccc2o1 | 3.98 µM [rising, partial curve] |
